Test results as given in patent US20240382469A1, “COMBINATION THERAPY WITH DEUTERATED IMIDAZOQUINOLINES” (BIRDIE BIOPHARMACEUTICALS, INC., priority 2021, published 2024).
At least one compound was matched to its structure with a doubt left.

Tested on: CT26 tumor cells
Assay: In vivo efficacy of compound 1 or proto-resiquimod in combination with an anti-PD-1 antibody in CT26 animal model
Set-up: species or system BALB/c mice
Settings: 1.6 μg TLR7/8 agonist s.c. days 7, 14 and 21 in combination with 50 μg anti-PD-1 antibody i.p. days 7, 10 and 14; FIG. 2
Procedure: Female BALB/c mice (5 to 6-week-old) were randomly divided into 4 groups (n=5 per group), including (1) placebo (PBS; i.p.); (2) anti-PD-1 antibody (50 μg; i.p.); (3) compound 1 (1.6 μg; s.c.) and anti-PD-1 antibody (50 μg; i.p.); (4) proto-resiquimod (1.6 μg; s.c.) and anti-PD-1 antibody (50 μg; i.p.).
To challenge mice, CT26 tumor cells (1×10^6 in 0.1 mL) were injected subcutaneously on day 0. Then, mice in each group received totally three doses of placebo, anti-PD-1 antibody or indicated combination therapy. In placebo group, mice received PBS (s.c.) on days 7, 14 and 21. In anti-PD-1 antibody alone group, mice received 50 μg of anti-PD-1 antibody (i.p.) on days 7, 10 and 14. In each combination therapy group, mice received 1.6 μg of TLR7/8 agonist (compound 1 or proto-resiquimod) (s.c.) on days 7, 14 and 21, and 50 μg of anti-PD-1 antibody (i.p.) on days 7, 10 and 14. All mice were sacrificed on day 28. By using the same method as described in example 1, the tumor size was determined and the significance of all comparisons was calculated.

SMILES: CCOCc1nc2c(N)nc3ccccc3c2n1CC(C)(C)O [proto-resiquimod, Resiquimod, reference compound]
- tumor size: moderately suppress tumor size
